Data: PubChem BioAssay AID493014 (National Center for Advancing Translational Sciences (NCATS), 2011)
Among all 340,000 compounds or so, about 170 (0.05%) were called active. This list was built around the results that the source calls inconclusive (neither active nor inactive); the mix of calls is not that of the screen. The call rests on the fitted dose curve; in most records, active means well fitted inhibition curve with a large enough effect in the signal ratio, with a control signal flat (not every such curve was filed as active); inconclusive means small, poorly fitted or top-dose-only effect, or effect the other way, or a change in a side signal; inactive means flat fitted curve, though single readings scatter; the % refers to the signal ratio. Potencies of inconclusive entries are doubtful fits and often do not repeat.

assay: qHTS Assay to Find Inhibitors of Chronic Active B-Cell Receptor Signaling; conditions: ABC-DLBCL IkBa-CBG/CBR reporter, luminescence ratio (green luciferase fused to IkBa over red control in TMD8 lymphoma cells), 4 h; activity change, negative = inhibition: at 46.1 µM (top of the series);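 on activity change, negative = inhibition: plate controls were basal doxycycline-induced cells for no effect and cells given 10 µM MG132 for full effect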
In short: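 TMD8 human ABC-DLBCL cells with doxycycline-inducible IκBα–green luciferase fusion and unfused red luciferase, in 0.5% FBS medium; compounds up to 46 uM, 4 h at 37C. Green/red luminescence ratio, filter-overlap corrected, fitted to concentration-response curves.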
Potency means the concentration at half of the fitted maximal effect.

Compound | activity change, negative = inhibition | Potency
O=C(NCc1cccnc1)c1ccc(-c2cc(Cl)ccc2Cl)o1 | inconclusive: 1.38% | 
Cc1c(Cl)cccc1NC(=O)CSc1ncccc1C(=O)Oc1ccccc1Cl | inconclusive: 19.9% | 
Nc1cccnc1Sc1cc(Cl)c(Cl)cc1Cl | inconclusive: 11.9% | 
COC(=O)CCc1c(C)[nH]c(C(=O)OCc2ccccc2)c1C | inactive: 0.81% | 
COC(=O)c1c(C)[nH]c(C(=O)N2CCN(c3ccc(OC)cc3)CC2)c1C | inactive: -12% | 
O=C(CCn1nc(-c2ccc(Cl)cc2)c2ccccc2c1=O)NCC1CCCO1 (stereo not given) | inconclusive: -0.245% | 
CC(C)C(=O)N1CCN(S(=O)(=O)c2ccc3ccccc3c2)CC1 | inactive: -0.865% | 
Cc1ccc(S(=O)(=O)Nc2ccc(-c3nnc(SCc4ccccc4Cl)o3)cc2)cc1 | inconclusive: 1.34% | 
C=CCNC(=O)COC(=O)c1ccccc1C(=O)N(C)C1CCCCC1 | inconclusive: 2.1% | 
Cc1sc2ncnc(Nc3ccc(O)cc3)c2c1C |  | inconclusive: 17.8 µM [falling, partial curve]
N#Cc1ccc(C23CC4(C2)[C@H](CN(Cc2ccc(-c5ccccc5)cc2)[C@@H]4c2ccccc2)C3c2ccc(C(F)(F)F)cc2)cc1 (stereo not given in full) | inactive: 2.08% | 
Cc1ccc2[nH]c(=O)c(C(c3nnnn3CC3CCCO3)N3CCc4ccccc4C3)cc2c1 (stereo not given) |  | inconclusive: 18.4 µM [rising, single point]
O=C(Oc1ccc(C(=S)N2CCOCC2)cc1)c1ccc([N+](=O)[O-])cc1 | inactive: -1.14% | 
Cc1ccc2oc(C(=O)N3CCN(CCO)CC3)c(C)c2c1 | inconclusive: 1.7% | 
CSc1nnc(NC(=O)c2nc(S(=O)(=O)Cc3ccccc3)ncc2Cl)s1 |  | inconclusive: 1.78 µM [rising, partial curve]
COc1ccc(S(N)(=O)=O)cc1C(=O)OCCCOC(=O)c1cc(S(N)(=O)=O)ccc1OC |  | inconclusive: 0.398 µM [falling, full curve, poor fit]
O=C1Nc2ccc3sc4ccccc4c3c2C1=O |  | inconclusive: 4.47 µM [activator, full curve, poor fit]
Cc1cccc(NC2=NC(=S)N(CC#N)C23CCCCC3)c1 | inconclusive: -23.1% | 
COc1cccc(C(=O)Oc2cc(C)[nH]c(=O)c2[N+](=O)[O-])c1 |  | inconclusive: 35.5 µM [falling, single point]
COc1cc(C2c3cc4c(cc3C(OC3OC5COC(c6cccs6)OC5C(O)C3O)C3COC(=O)C23)OCO4)cc(OC)c1O (stereo not given) |  | inconclusive: 2 µM [rising, full curve, poor fit]
O=C(O)c1cc(-c2ccccc2)c(N2CCOCC2)s1 |  | inconclusive: 2.31 µM [falling, partial curve, poor fit]
Cc1ccc(CN2CC(C(=O)N(Cc3nnc(-c4ccccc4Cl)o3)C3CC3)CC2=O)cc1 (stereo not given) | inconclusive: -13.1% | 
Cc1ccc(-c2nc3ccccc3o2)cc1NC(=S)NC(=O)c1cc2ccccc2o1 | inactive: 4.09% | 
CCOC(=O)c1sc(C)c2c1NC(C)(c1cccc3ccccc13)NC2=O (stereo not given) | inconclusive: 12.9% | 
CCC(NC(=S)NCc1ccc(F)cc1)c1ccccc1 (stereo not given) | inactive: -0.466% | 
COc1ccc(CC(=O)NCc2ccco2)cc1OC | inconclusive: -0.222% | 
Cc1ccc(C)c(NC(=O)c2cnn3ccccc23)c1 |  | inconclusive: 29.1 µM [falling, single point]

Compound | activity change, negative = inhibition | Potency
CCN(CC)S(=O)(=O)c1ccc(N2CCOCC2)c(NC(=O)c2ccc(C#N)cc2)c1 | inactive: -3.3% | 
COc1ccc(Br)cc1CN(C)C(=O)C1=CC=CN2CCS(=O)(=O)N=C12 | inconclusive: -0.881% | 
Nc1c(C(=O)NCc2ccc3c(c2)OCO3)nnn1-c1ccc(OC(F)(F)F)cc1 | inconclusive: -2.15% | 
Cc1ccc(C)c(S(=O)(=O)NCc2ccc(C(=O)N3CCC(Cc4ccccc4)CC3)cc2)c1 | inconclusive: -0.0856% | 
Cc1cc(NC(=O)CN(C)C)c([N+](=O)[O-])cc1C | inconclusive: 12.8% | 
CCOc1ccc2nc(SCC(=O)NC3CCCCC3)[nH]c2c1 | inactive: -6.21% | 
C#CC1(NC(=O)NC(C)C)CCCCC1 | inconclusive: 13.7% | 
Cc1nc2ccc(NC(=S)NCCCO)cc2nc1C | inconclusive: 1.48% | 
CCCOC(=O)c1ccc(Cl)c(NC(=O)c2cccnc2)c1 | inactive: -21.8% | 
CC(=O)NNc1nc2ccccc2s1 | inactive: 1.65% | 
COc1ccccc1OCCOCCOc1ccccc1Cl | inconclusive: 2.51% | 
CC(c1cccs1)N(Cc1ccco1)C(=O)Nc1ccc(Cl)c(Cl)c1 (stereo not given) | inactive: 14.7% | 
Cc1ccc(NC(=S)NC(NC(=O)Cc2cccc3ccccc23)C(Cl)(Cl)Cl)cc1 (stereo not given) | inconclusive: -1.43% | 
CSc1ccc(CN2CCN(C3CCCC3)C(CCO)C2)cc1 (stereo not given) | inconclusive: -21% | 
Cc1cccn2c(=O)c3cc(S(=O)(=O)c4ccccc4)c(=N)n(Cc4cccnc4)c3nc12 | inactive: -0.675% | 
CCc1nc(Nc2ccccc2)c2oc3ccccc3c2n1 |  | inconclusive: 0.631 µM [falling, full curve, poor fit]
O=C(CN1CCN(Cc2ccc(Cl)cc2)CC1)N1CCc2ccccc21 | inactive: 3.24% | 
CCOC(=O)c1c(NC(=O)CSc2nnnn2CC)sc(C)c1C | inconclusive: -2.16% | 
O=C(Nc1ccc(F)cc1)C1CCCN1S(=O)(=O)c1cccc2nsnc12 (stereo not given) | inconclusive: -0.0683% | 
O=C(CCC(=O)N1CCSc2ccccc21)Nc1ccc(F)cc1 | inconclusive: 10.3% | 
CCOC(=O)c1cc(C(C)(C)C)oc1CNC(=O)c1c(C)oc2c1CCCC2 | inconclusive: 15.3% | 
Cc1ccc(NC(=O)CS(=O)CC(=O)Nc2ccc(N3CCOCC3)cc2)cc1Cl (stereo not given) | inconclusive: 3.83% | 
Cc1cc(Oc2ccc(=O)n(C)n2)nc(Oc2ccc(=O)n(C)n2)n1 | inconclusive: 1.43% | 
CS(=O)(=O)c1nc(-c2ccc(Br)cc2)cc(-c2ccccc2)c1C#N | inconclusive: -18.2% | 
O=C(O)/C=C/C(=O)c1ccc2c(c1)CCc1ccccc1-2 |  | inconclusive: 29.1 µM [rising, partial curve, poor fit]
CC[C@]12CCCN3CCc4c(n(c5ccccc45)[C@@](O)(C(=O)OC)C1)[C@@H]32 | inactive: 2.76% | 
CCOC(=O)c1cc(CC)sc1NC(=O)C1CC(=O)NN1Cc1ccccc1 (stereo not given) |  | inconclusive: 8.2 µM [falling, partial curve, poor fit]

Compound | activity change, negative = inhibition | Potency
COc1ccc(C(=O)/C=C/Nc2ccc(NC(C)=O)cc2)cc1OC | inactive: -4.23% | 
COc1cccc(OCCCOc2ccc([N+](=O)[O-])cc2Cl)c1 | inconclusive: 16.1% | 
Cc1ccc(-n2ncc3c(Nc4ccccc4C)ncnc32)cc1 |  | inconclusive: 31.6 µM [falling, single point]
Cc1ccc2nc(NC(=O)CN3C(=O)C4CC=CCC4C3=O)sc2c1 (stereo not given) | inconclusive: 2.27% | 
O=C(Nc1cccc(Br)c1)c1ccc(CN2CCc3ccccc3C2)cc1 |  | inconclusive: 17.8 µM [falling, partial curve, poor fit]
Cc1ccc(-c2nnc(CSc3nnc(COc4ccccc4)n3-c3ccc(C)cc3)o2)cc1 |  | inconclusive: 35.5 µM [falling, single point]
Cc1nn(-c2ccccc2)c(C)c1C(=O)OCC(=O)NC(=O)NC1CCCC1 |  | inconclusive: 2 µM [falling, full curve]
Cc1occc1C(=O)N/N=C/C=C\c1ccccc1[N+](=O)[O-] |  | inconclusive: 17.8 µM [falling, partial curve]
COc1cccc(NC(=S)N2C3CCCC2CC(NC(=O)C2CC2)C3)c1 (stereo not given) | inconclusive: -22.8% | 
Cc1cc(C(=O)OCC(=O)NC2CCS(=O)(=O)C2)c2ccccc2n1 (stereo not given) | inactive: -0.265% | 
COc1ccc(CNC(=O)c2ccc3c(c2)NC(=O)C(C)S3)cc1 (stereo not given) |  | inconclusive: 0.631 µM [falling, partial curve, poor fit]
CCC(=O)Nc1nonc1-c1nc2ccccc2n1Cc1ccccc1 | inconclusive: 0.596% | 
Cc1oc(CC(C)C)cc1C(=O)Nc1ccc(C(=O)O)cc1 |  | inconclusive: 10 µM [falling, partial curve]
O=C(c1cc(-c2ccc(Cl)c(Cl)c2)on1)N1CCCCC1 |  | inconclusive: 3.16 µM [falling, full curve, poor fit]
Cc1cc(=O)[nH]c(N/N=C/c2ccc(-c3ccc([N+](=O)[O-])cc3)o2)n1 | inactive: 7.2% | 
CC(C)(C)c1ccc(S(=O)(=O)N2CCN(C(=O)C3CCC3)CC2)cc1 | inactive: 0.228% | 
OCCNc1nc(SCc2ccccc2)nc2sc3c(c12)CCC3 | inactive: 22.8% | 
O=c1c2ccccc2nc(-c2ccc(F)cc2)n1NCc1ccccc1O |  | inconclusive: 10 µM [falling, partial curve]
O=C(CNc1cccc(S(=O)(=O)N2CCCCCC2)c1)Nc1cccc([N+](=O)[O-])c1 | inactive: 1.58% | 
COc1ccccc1-c1cc(C(F)(F)F)nc(S(C)(=O)=O)n1 |  | inconclusive: 9.2 µM [rising, partial curve]
COc1ccc(C2CC(c3ccccc3)=NN2c2ccc(S(N)(=O)=O)cc2)cc1OC (stereo not given) | inconclusive: -10.9% | 
CSc1nc(O)c(Cc2ccccc2)c(=O)[nH]1 | inconclusive: 8.06% | 
COc1ccc(C(=O)NCc2cccs2)cc1S(=O)(=O)N1CCOCC1 | inactive: 1.5% | 
O=S(=O)(Nc1nc2ccccc2s1)c1ccc(Br)s1 | inconclusive: 20.3% | 
CCN1CCN(CC(=O)n2c3c(c4ccccc42)CC(C)CC3)CC1 (stereo not given) | inconclusive: -16.7% | 
C/C=C(\C)C(=O)N1CC2(CC(c3cccc(NC(=O)CCCCC)c3)=NO2)C[C@@H]1C(N)=O (stereo not given in full) |  | inconclusive: 35.5 µM [falling, partial curve, poor fit]

Ordered by molecular weight (ascending): four of the compounds above
Compound | activity change, negative = inhibition | Potency
O=C(Oc1ccc(C(=S)N2CCOCC2)cc1)c1ccc([N+](=O)[O-])cc1 | inactive: -1.14% | 
Cc1nn(-c2ccccc2)c(C)c1C(=O)OCC(=O)NC(=O)NC1CCCC1 |  | inconclusive: 2 µM [falling, full curve]
O=C(CCn1nc(-c2ccc(Cl)cc2)c2ccccc2c1=O)NCC1CCCO1 (stereo not given) | inconclusive: -0.245% | 
Cc1ccc(C)c(S(=O)(=O)NCc2ccc(C(=O)N3CCC(Cc4ccccc4)CC3)cc2)c1 | inconclusive: -0.0856% | 
